# Laboratory results from PubChem BioAssay AID2685 (National Center for Advancing Translational Sciences (NCATS), 2010).
# The list shows a part of the results. Further columns of the screen follow, without active or inactive calls. Most of these compounds were active or inconclusive in the main read-out, so they are no random draw. Words in brackets tell the shape of the fitted curve; partial curves, single points and poor fits give uncertain potencies. Where a SMILES comes first, the peptide text is derived from it. The star is where a group is joined. OBn = c1ccc(CO*)cc1
# Assay: qHTS Assay for Lipid Storage Modulators in Drosophila S3 Cells;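 on cell number change: cells counted by Cell Tracker Red CMTPX staining in the red channel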
# Conditions: BODIPY lipid droplet fluorescence, 18-24 h; for cell number change: measured here: cell count max response, cells fed with added oleic acid
# Procedure, shortened: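 Drosophila S3 cells got compounds at several concentrations plus oleic acid (400 uM solution). Laser-scanning cytometry with 488 nm excitation read lipid droplets at 500-530 nm and cells at 575-640 nm. Percent activity was relative to 20 uM Triacsin C.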
# [1] = measured here: cell number channel AC50, cells fed with added oleic acid
# [2] = measured here: lipid fluorescence (Fed channel) AC50, cells fed with added oleic acid
SMILES,cell number change [%],AC50 [1],AC50 [2]
O=C(Nc1ccccc1)Nc1ncc([N+](=O)[O-])s1,-59,"20.6 µM [falling, single point]","23.1 µM [falling, partial curve]"
Fc1ccc(-c2nnc(CSc3nnc4ccccn34)o2)cc1,14.2,,"2.31 µM [rising, partial curve]"
CN(CC(=O)O/N=C(\N)c1ccc([N+](=O)[O-])cc1)S(=O)(=O)c1ccc2ccccc2c1,0.445,,"0.13 µM [falling, full curve, poor fit]"
CC(=O)/C(=C/N(C)C)C(=O)Nc1ccc(Cl)cc1Cl,-7.69,,"20.6 µM [falling, single point]"
Cc1[nH]c(-c2ccc(F)cc2)cc1C(=O)N1CCN(c2ccc(Cl)cc2)CC1,61.3,"6.51 µM [rising, full curve]","4.11 µM [rising, full curve]"
C=CCn1c(=NC(=O)C2CCCCC2)sc2cc(NC(C)=O)ccc21,29,,"2.59 µM [rising, full curve]"
Cc1ccc(NC(=O)/C=C/c2ccc([N+](=O)[O-])s2)cc1,-18.6,,"2.59 µM [falling, partial curve]"
CC1(C)OC2OC(C(=O)N/N=C/c3cc(Br)ccc3O)C3OC(C)(C)OC3C2O1 (stereo unspecified),-32.4,"3.66 µM [falling, single point]","6.51 µM [falling, full curve]"
Cc1ccc2[nH]c(=O)c(N3CCOCC3)c(-c3ccccc3)c2c1,-30.2,"32.6 µM [falling, single point]",
COc1cccc(NC(=O)C2CCN(S(=O)(=O)c3ccc4c(c3)NC(=O)C(C)S4)CC2)c1 (stereo unspecified),-20.1,,"6.51 µM [rising, single point]"
CCOC(=O)C1=C(C)NC(C)=C(C(=O)OCC)C1C(=O)OC1CCOC1=O (stereo unspecified),11.5,,
COc1ccc(-n2c(SCC3CNC(=O)O3)nnc2-c2ccc(Cl)cc2)cc1 (stereo unspecified),-1.9,,
CC(C(=O)c1ccc(Br)cc1)[n+]1cccc2ccccc21 (stereo unspecified),45.3,"14.6 µM [rising, partial curve, poor fit]","3.66 µM [falling, full curve]"
COC(=O)c1ccc(OCC(=O)c2ccccc2OC)cc1,,"2.06 µM [rising, partial curve]","14.6 µM [rising, partial curve]"
CCN(CC)S(=O)(=O)c1ccc(OC)c(NC(=O)C(C)Oc2ccc3c(C)cc(=O)oc3c2)c1 (stereo unspecified),17.7,,"0.326 µM [rising, full curve, poor fit]"
O=C(CCNC(=O)c1ccccc1Cl)OCC(=O)c1ccccc1,-99.4,"23.1 µM [falling, partial curve]","18.4 µM [falling, partial curve]"
Cc1onc(-c2ccccc2)c1C(=O)NCc1ccc2c(c1)OCO2,-25.8,,"9.2 µM [falling, partial curve]"
Cc1ccc(C(C)(C)C)cc1S(=O)(=O)NC(=O)c1ccccc1,,"0.058 µM [falling, full curve, poor fit]","0.291 µM [falling, full curve]"
COCCN1C(=O)c2oc3c(C)cc(C)cc3c(=O)c2C1c1cccc(O)c1 (stereo unspecified),,"1.03 µM [rising, partial curve]","2.06 µM [rising, partial curve]"

SMILES,cell number change [%],AC50 [1],AC50 [2]
CCc1nnc2n1N=C(c1ccc(-c3cc(Cl)ccc3Cl)o1)CS2,,,"0.651 µM [falling, single point]"
Cc1cccc(C(=O)OC(C)C(=O)NCC2CCCCC2)c1O (stereo unspecified),0.0318,,
CC(C)(C)C(=O)OCc1nc(-c2ccc3c(c2)OCCO3)cs1,-21.5,,"32.6 µM [falling, single point]"
OC(Cn1cnnc1)c1ccccc1 (stereo unspecified),-12.1,,"6.51 µM [rising, single point]"
CCC(C)C(NC(=O)C(N)CC(C)C)C(=O)NC(CCC(=O)OCc1ccccc1)C(N)=O (stereo not drawn) (H-Leu-Ile-Glu(OBn)-NH2; configuration not given here),-14.3,"0.00517 µM [falling, full curve, poor fit]","6.51 µM [falling, single point]"
CCOc1ccccc1C(=O)NCC(=O)OCc1c(C)noc1C,19.8,,"7.31 µM [rising, partial curve]"
Cc1cccc(C(=O)N2CCN=C2SCc2ccc([N+](=O)[O-])cc2)c1,63.4,,
O=C(NCc1ccc(N2CCCC2=O)cc1)c1cn(Cc2ccccc2)nn1,7.98,,
OCC1(Cc2ccc(Cl)cc2)CCN(Cc2ccc(Oc3ncccn3)cc2)CC1,25.7,"0.517 µM [rising, full curve]",
CCN(CC)C(=S)Nc1ccc(OC)cc1,-12,,
C#CCOCCOCCOCCNc1nc(N2CCN(C(=O)Cn3cc(CCCCN)nn3)CC2)nc(N2CCN(C(=O)[C@H]([C@@H](C)CC)n3cc(CCCN=C(N)N)nn3)CC2)n1,-25,,"0.82 µM [rising, full curve]"
COC(=O)c1ccccc1Sc1ncnc2onc(C)c12,,"0.164 µM [rising, full curve]","0.164 µM [rising, full curve, poor fit]"
CCN(CC)S(=O)(=O)c1ccc(NC(=S)NC(=O)C2CCC2)cc1,-14.4,,"29.1 µM [rising, single point]"
O=[N+]([O-])c1ccc(-n2nnnc2CN2CCCCC2)cc1,7.67,"0.82 µM [rising, single point]",
O=C(NCCc1ccccc1)c1cc(=O)[nH]c2ccccc12,,,"2.59 µM [rising, single point]"
CC(C)CN1C(=O)C(=O)N(CC(=O)N2CCC(Cc3ccccc3)CC2)C1=O,,"0.461 µM [falling, single point]",
CC(=O)NCc1ccc(S(=O)(=O)N/N=C/c2ccccc2)cc1,-18.6,,"3.26 µM [falling, partial curve]"
COc1ccc(C(C)=O)cc1CSc1nnc2c(Cl)cc(Cl)cn12,3.76,,"0.0461 µM [rising, full curve, poor fit]"
